Results: PubChem BioAssay AID504444 (National Center for Advancing Translational Sciences (NCATS), 2011)
Hit rate of the full screen: of about 360,000 compounds, about 7,500 (2.1%) were called active. The inconclusive results got no clear call from the source; some entries with a clear call stand among them for comparison. The call rests on the fitted dose curve; in most records, active means well fitted inhibition curve with a large enough effect; inconclusive means small, poorly fitted or top-dose-only effect, or effect the other way; inactive means flat fitted curve, though single readings scatter. Potencies of inconclusive entries are doubtful fits and often do not repeat.

Assay: Nrf2 qHTS screen for inhibitors; further: nearly all actives have a fitted effect of over 60% in size
Conditions: A549 ARE-Fluc reporter, luciferase luminescence, 18-24 h; series mostly up to 46 µM
In short: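 Nrf2 activity is the BugLite luminescence, read 15 min after reagent at room temperature, following CellTiter-Fluor cytotoxicity readout (30 min, 37C). Compound titrations were applied for 18-24 h to 5000 A549 ARE_Fluc cells/well in 5% FBS OPTI-MEM.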
Potency means the concentration at half of the fitted maximal effect.

Row | Structure (SMILES) | Potency
1 | Cc1nc2ccccc2c(=O)n1/N=C/c1ccc(OC(F)F)cc1 | inconclusive: 23.1 µM [activator, partial curve, poor fit]
2 | O=C1c2ccc(Br)cc2C(=O)N1c1ccc(Cc2ccncc2)cc1 | active: 20.6 µM
3 | Cc1ccc(S(=O)(=O)N2CCC(=O)N(CCOCc3cccc(C(F)(F)F)c3)CC2)cc1 | inconclusive: 25.9 µM [falling, single point]
4 | COc1ccc(S(=O)(=O)N(CC(=O)Nc2cc(C)ccc2OC)Cc2ccccc2)cc1 | inconclusive: 23.1 µM [falling, partial curve, poor fit]
5 | CCOc1ccccc1NS(=O)(=O)c1ccc2[nH]c3c(c2c1)CCCCC3 | inconclusive: 29.1 µM [falling, single point]
6 | Cc1ccc(Cn2c(=O)n(-c3ccc(C)cc3)c(=O)c3c2c2cc(C)ccc2n3C)cc1 | inconclusive: 16.4 µM [activator, partial curve, poor fit]
7 | COC(=O)/N=C(/Cc1ccc(OC)cc1)c1ccc(OC)cc1 | inconclusive: 23.1 µM [activator, partial curve, poor fit]
8 | O=c1c(Cl)c(NC2CC2)cnn1-c1ccccc1 | inconclusive: 18.4 µM [activator, single point]
9 | Nc1ccc(-c2nnn(Cc3ccccc3F)n2)cc1 | inconclusive: 23.1 µM [activator, single point]
10 | Cc1cc(C(=O)COC(=O)c2ccc(O)cc2)c(C)n1Cc1ccco1 | inconclusive: 23.1 µM [activator, single point]
11 | COc1ccc(NC(=O)CN(C)C(=O)c2ccc(NC3CC3)c([N+](=O)[O-])c2)cc1 | inconclusive: 20.6 µM [falling, single point]
12 | Cc1ccc(C(=O)Nc2ncc(Cc3ccccc3)s2)o1 | inconclusive: 10.3 µM [activator, partial curve]
13 | O=C(/C=C/c1ccc(S(=O)(=O)NCc2ccco2)cc1)NCc1cccc(Cl)c1 | inconclusive: 3.26 µM [falling, full curve]
14 | O=C(NCCc1ccccc1)C(=O)NCCC1CCCCN1S(=O)(=O)c1cccs1 (centres undefined) | inactive
15 | COc1ccc(NC(=O)/C=C/c2ccco2)cn1 | inconclusive: 6.51 µM [activator, full curve]
16 | Cc1ccc(-c2csc(N3CCN(S(=O)(=O)c4ccc5c(c4)NC(=O)CO5)CC3)n2)cc1 | inconclusive: 18.4 µM [falling, partial curve, poor fit]
17 | CCOc1ccc(N(C(=O)c2snc(C(N)=O)c2N)C(C(=O)NCC2CCCO2)c2c[nH]c3ccccc23)cc1 (centres undefined) | inconclusive: 14.6 µM [falling, partial curve, poor fit]
18 | O=C(Nc1nc(-c2cccs2)c(C(=O)C(F)(F)F)s1)c1ccccc1 | active: 20.6 µM
19 | O=C(CSc1nc2nn(-c3ccccc3)c(=O)c-2c2n1CCCCC2)Nc1ccc(F)cc1F | inconclusive: 20.6 µM [falling, single point]
20 | Cc1ccc(-n2[nH]c(=O)c(-c3ccccn3)c2C)cc1 | inconclusive: 29.1 µM [falling, single point]
21 | C=C1CCC2C(C)(C)[C@H](O)CC[C@@]2(C)[C@@H]1COc1cc(=O)oc2ccccc12 (some centres undefined) | inconclusive: 16.4 µM [falling, single point]
22 | COc1ccccc1N1CCN(CC(=O)Nc2cc(C)nn2-c2nc(C)cc(C)n2)CC1 | inconclusive: 0.146 µM [falling, full curve, poor fit]

Row | Structure (SMILES) | Potency
23 | Cc1c(Cl)c(C(=O)NNC(=S)Nc2ccccc2)nn1C | inconclusive: 1.46 µM [activator, full curve]
24 | CCOc1ccc(N(CC(=O)Nc2cccc(OC)c2)S(=O)(=O)c2c(C)noc2C)cc1 | inconclusive: 29.1 µM [falling, single point]
25 | COCCN(Cc1cc2c(C)cc(C)cc2nc1Cl)C(=O)c1ccccc1F | active: 18.4 µM
26 | CCN(CC)C(=O)[C@H]1C[C@H](CC(=O)NCc2ccco2)C(=O)N2CCc3c([nH]c4ccc(Cl)cc34)[C@]12C | inconclusive: 18.4 µM [falling, single point]
27 | CCc1ccc(NC(=O)CN2C(=O)C(=O)c3ccccc32)cc1 | inactive
28 | CCN(CC)CCN(Cc1cc2ccc(C)c(C)c2[nH]c1=O)C(=S)NCc1ccco1 | inconclusive: 18.4 µM [activator, partial curve]
29 | O=C(CN1Cc2ccccc2C1=O)Nc1ccc2c(c1)OCCO2 | inconclusive: 13 µM [activator, partial curve, poor fit]
30 | COc1ccc(OC)c(CCNC(=O)Cn2nc(C)c3c(C)n(-c4ccccc4)nc3c2=O)c1 | inconclusive: 29.1 µM [falling, single point]
31 | COc1cccc(CNC(=O)c2csc3c2CCCC3)c1 | inconclusive: 14.6 µM [falling, partial curve]
32 | CC1(C)C(C=C(Cl)Cl)C1C(=O)N/N=C/c1ccccc1F (centres undefined) | inconclusive: 29.1 µM [falling, single point]
33 | Nc1cccc(C(=O)OCC(=O)c2ccccc2)c1 | inconclusive: 4.61 µM [activator, partial curve]
34 | CC(=O)c1ccc(NC(=O)CN2C(=O)/C(=C/C=C/c3ccccc3)SC2=S)cc1 | inconclusive: 29.1 µM [activator, single point]
35 | COc1cc(NC(=O)c2ccc(C)cc2)c(OC)cc1NC(=O)CN1CCCCC1 | inconclusive: 0.517 µM [activator, full curve, poor fit]
36 | CN(C)/C=C/c1onc(-c2c(F)cccc2Cl)c1C#N | inconclusive: 20.6 µM [activator, partial curve]
37 | COc1ccc(N=C2NC(=O)/C(=C\c3ccco3)S2)cc1 | inconclusive: 2.59 µM [falling, full curve]
38 | COc1ccc(-c2onc(C)c2C)cc1S(=O)(=O)NC1CCCCC1 | inactive
39 | CCn1cc(C(=O)N(C)Cc2ccccc2)c(=O)c2cc(S(=O)(=O)N3CCCCC3)ccc21 | inactive
40 | CC(C)C[C@@H](CO)N(Cc1ccccc1)S(=O)(=O)N(Cc1ccccc1)[C@@H](CO)CC(C)C | inconclusive: 29.1 µM [falling, single point]
41 | CC1=NN(C(=O)c2ccccc2)C(O)(c2ccc(Br)cc2)C1 (centres undefined) | inconclusive: 32.6 µM [falling, single point]
42 | N/C(=N\OC(=O)c1ccc(Cl)cc1Cl)c1ccncc1 | inconclusive: 2.59 µM [activator, full curve]
43 | O=C(C1=C[C@H](C2CCCCC2)C[C@H](OCCCCO)O1)N1CCN(Cc2ccc3c(c2)OCO3)CC1 | active: 18.4 µM
44 | Cc1ccc(NC(=O)c2ccc(-c3nn(C)c(=O)c4ccccc34)cc2)c(C)c1 | inconclusive: 18.4 µM [falling, partial curve, poor fit]

In a second layout: 19 of the compounds above.

| Row | Structure (SMILES) | Potency |
| --- | --- | --- |
| 24 | CCOc1ccc(N(CC(=O)Nc2cccc(OC)c2)S(=O)(=O)c2c(C)noc2C)cc1 | inconclusive: 29.1 µM [falling, single point] |
| 25 | COCCN(Cc1cc2c(C)cc(C)cc2nc1Cl)C(=O)c1ccccc1F | active: 18.4 µM |
| 26 | CCN(CC)C(=O)[C@H]1C[C@H](CC(=O)NCc2ccco2)C(=O)N2CCc3c([nH]c4ccc(Cl)cc34)[C@]12C | inconclusive: 18.4 µM [falling, single point] |
| 27 | CCc1ccc(NC(=O)CN2C(=O)C(=O)c3ccccc32)cc1 | inactive |
| 28 | CCN(CC)CCN(Cc1cc2ccc(C)c(C)c2[nH]c1=O)C(=S)NCc1ccco1 | inconclusive: 18.4 µM [activator, partial curve] |
| 29 | O=C(CN1Cc2ccccc2C1=O)Nc1ccc2c(c1)OCCO2 | inconclusive: 13 µM [activator, partial curve, poor fit] |
| 30 | COc1ccc(OC)c(CCNC(=O)Cn2nc(C)c3c(C)n(-c4ccccc4)nc3c2=O)c1 | inconclusive: 29.1 µM [falling, single point] |
| 31 | COc1cccc(CNC(=O)c2csc3c2CCCC3)c1 | inconclusive: 14.6 µM [falling, partial curve] |
| 32 | CC1(C)C(C=C(Cl)Cl)C1C(=O)N/N=C/c1ccccc1F (centres undefined) | inconclusive: 29.1 µM [falling, single point] |
| 33 | Nc1cccc(C(=O)OCC(=O)c2ccccc2)c1 | inconclusive: 4.61 µM [activator, partial curve] |
| 34 | CC(=O)c1ccc(NC(=O)CN2C(=O)/C(=C/C=C/c3ccccc3)SC2=S)cc1 | inconclusive: 29.1 µM [activator, single point] |
| 35 | COc1cc(NC(=O)c2ccc(C)cc2)c(OC)cc1NC(=O)CN1CCCCC1 | inconclusive: 0.517 µM [activator, full curve, poor fit] |
| 36 | CN(C)/C=C/c1onc(-c2c(F)cccc2Cl)c1C#N | inconclusive: 20.6 µM [activator, partial curve] |
| 37 | COc1ccc(N=C2NC(=O)/C(=C\c3ccco3)S2)cc1 | inconclusive: 2.59 µM [falling, full curve] |
| 38 | COc1ccc(-c2onc(C)c2C)cc1S(=O)(=O)NC1CCCCC1 | inactive |
| 39 | CCn1cc(C(=O)N(C)Cc2ccccc2)c(=O)c2cc(S(=O)(=O)N3CCCCC3)ccc21 | inactive |
| 40 | CC(C)C[C@@H](CO)N(Cc1ccccc1)S(=O)(=O)N(Cc1ccccc1)[C@@H](CO)CC(C)C | inconclusive: 29.1 µM [falling, single point] |
| 41 | CC1=NN(C(=O)c2ccccc2)C(O)(c2ccc(Br)cc2)C1 (centres undefined) | inconclusive: 32.6 µM [falling, single point] |
| 42 | N/C(=N\OC(=O)c1ccc(Cl)cc1Cl)c1ccncc1 | inconclusive: 2.59 µM [activator, full curve] |

More records follow:

Row | Structure (SMILES) | Potency
45 | Cc1cnccc1CN(C)Cc1nc(Cc2ccccc2Cl)no1 | inconclusive: 16.4 µM [falling, partial curve]
46 | Nc1cc2nsnc2cc1Br | inactive
47 | CN(C(=O)CSc1nc2ccc(NC(=O)c3ccc(F)cc3)cc2s1)c1ccccc1 | inconclusive: 20.6 µM [falling, single point]
48 | CCCCC(=O)NC(c1ccc([N+](=O)[O-])cc1)c1c(O)ccc2ccccc12 (centres undefined) | inconclusive: 29.1 µM [falling, single point]
49 | Cc1cc[n+](-c2nc([O-])sc2/C=N/Nc2ccc([N+](=O)[O-])cc2)cc1 | inactive
50 | CC(C)CC(=O)Nc1ccc(-c2nc3ccccc3c(=O)[nH]2)cc1 | inconclusive: 0.517 µM [activator, full curve, poor fit]
51 | Cc1ccc(OS(=O)(=O)c2ccc(-c3csc(C)n3)s2)c(C)c1 | inconclusive: 29.1 µM [falling, single point]
52 | CC(Oc1ccc(Cl)cc1Cl)C(=O)Nc1ccc2oc(-c3ccncc3)nc2c1 (centres undefined) | active: 4.61 µM
53 | Cc1cc(C)c(OCC(=O)Nc2nnc(C3CC3)s2)c(C)c1 | inconclusive: 0.092 µM [activator, full curve, poor fit]
54 | Cc1oc(S(=O)(=O)N2CCCC2)cc1C(=O)Nc1ccc(F)cc1 | inconclusive: 23.1 µM [falling, partial curve]
55 | O=S(=O)(c1ccc2c(c1)OCCO2)N1CCN(c2nc(-c3ccccc3)nc3ccccc23)CC1 | inconclusive: 29.1 µM [activator, single point]
56 | O=C(Nc1ccnn1C1CCN(C(=O)c2ccccc2C(F)(F)F)CC1)C1CC1 | inconclusive: 4.61 µM [activator, partial curve]
57 | c1ccc(-c2nc3c4ccccc4ccn3c2CN2CCCCC2)cc1 | inconclusive: 20.6 µM [activator, partial curve, poor fit]
58 | CCCC(c1nnnn1CCc1ccccc1)N1CCC(C(N)=O)CC1 (centres undefined) | inactive
59 | O=C(c1ccccc1)N1CCC(c2nc(-c3ccc(S(=O)(=O)NCC4CCCO4)cc3)no2)CC1 (centres undefined) | active: 3.66 µM
60 | COC(=O)C1=C(c2ccccc2)c2ccccc2S(=O)(=O)N1CC(=O)Nc1cc(C)ccc1C | inactive
61 | Cc1ccc(CN2C(=O)C3(SCC(=O)N3c3ccc(C)c(C)c3)c3ccccc32)cc1 (centres undefined) | inconclusive: 23.1 µM [falling, single point]
62 | COc1ccc(NC(=O)C2CCN(S(=O)(=O)c3ccc4c(c3)NC(=O)C(C)S4)CC2)cc1 (centres undefined) | active: 23.1 µM
63 | CC1(CC(=O)Nc2ccccc2)NC(=S)N(c2ccccc2)N1 (centres undefined) | inactive
64 | CCOC(=O)Cn1nc(N2CCN(c3ccc(F)cc3)CC2)ccc1=O | inactive
